{"source": "patent US20050065348A1", "about": "“Pyridin-2-yl-methylamine derivatives for treating opioid dependence” (priority 2001, published 2005)", "tested_on": "morphine withdrawal syndrome (hyperalgesia)", "experiment": "Effects on morphine dependence: naloxone-precipitated withdrawal hyperalgesia (Randall and Selitto nociceptive thresholds)", "format": "in vivo", "settings": "rat; morphine 5 mg/rat/day + saline, s.c. osmotic mini-pumps 2 weeks; naloxone 0.63 mg/kg s.c.; SNK p<0.05", "data": [{"molecule": "CN1CC[C@]23c4c5ccc(O)c4O[C@H]2[C@@H](O)C=C[C@H]3[C@H]1C5", "note": "[morphine, Morphine chlorhydrate]", "values": [{"measurement": "AUC of nociceptive thresholds 30 minutes to 4 days after naloxone, morphine alone versus physiological serum", "value": "significantly weaker"}]}]}
